Reference: patent US6630612B2, “5-HT3 receptor assay using transgenic mammal” (University of New Mexico, priority 1997, dated 2003)
For at least one compound, name, drawing or mass did not settle the structure.

System: 5-HT3 receptor
Assay: Specific binding with 3H-GR65630 in membranes from various tissues of transgenic and B6SJL/F1 control mice
Set-up: species or system mouse
Conditions: Cerebellum membranes, transgenic mice
Experimental: For homogenate binding studies, cortices and cerebelli were removed and homogenized by hand in ice cold Hepes buffer (50 mM, pH 7.5) and centrifuged at 500 g for 5 minutes at 4° C. Liver, lung, heart, spleen, kidney, small intestines, testes, and skeletal muscle (from hind limb) were homogenized with an Omni tissue chopper. Membranes were pelleted by centrifugation at 20,000 g for 20 minutes at 4° C. and the pellets washed twice before suspension to 3 mg/ml in a buffer containing 145 mM NaCl, 5 mM KCl, 1, mM MgCl2, 1 mM CaCl2, 10 mM glucose, and 10 mM TRIS, pH 7.5. Saturation curves were carried out with 0.0125-25 nM ^3H-GR65630 at 37° C. for 30 minutes with 300 μg total protein. Incubation was terminated by dilution with ×10 volume (5 ml) of ice-cold buffer followed by rapid filtration onto Whatman GF/B filters. Filters were washed twice with 5 ml ice-cold buffer and counted by scintillation counting in EcoLite (ICN) scintillation cocktail. Non-specific binding (NSB) was determined with 0.125-256 μM tropisetron. Displacement binding was carried out the same as saturation binding except with 1 nM ^3H-GR65630 and NSB defined with 10 μM tropisetron. Protein concentrations were determined by Folin phenol reagent (Lowry et al., J. Biol. Chem. 193: 256-275, 1951).

## Cc1[nH]cnc1CCC(=O)c1cn(C)c2ccccc12 [^3H-GR65630]
  Specific binding (means ± SEM): 12,3 ± 14.9 fmol/mg protein
